In PubChem BioAssay (EPA / NIEHS):
“And” between values parts separate entries of the source, which are not always exact repeats. Equal values may be shown once. For part of these data: The hits were mostly taken out for another list; the other results follow. Records with an inconclusive call do not appear. More than one record can exist for a structure, and the calls need not agree. This is a selection; strong and weak results do not stand in their true shares. The source made the active and inactive calls. Rule for the calls, unless noted: active = hit-call score of the fitted dose curve at least 0.9, where 1 is the maximum; inconclusive = response in the unintended direction; inactive = score below 0.9.

The chains behind the UniProt entries cited, without tags or fusion partners. Where a name states a change or a piece, a line headed by the entry shows the natural chain unless it says otherwise.
UniProt P05177, whole entry, looked up: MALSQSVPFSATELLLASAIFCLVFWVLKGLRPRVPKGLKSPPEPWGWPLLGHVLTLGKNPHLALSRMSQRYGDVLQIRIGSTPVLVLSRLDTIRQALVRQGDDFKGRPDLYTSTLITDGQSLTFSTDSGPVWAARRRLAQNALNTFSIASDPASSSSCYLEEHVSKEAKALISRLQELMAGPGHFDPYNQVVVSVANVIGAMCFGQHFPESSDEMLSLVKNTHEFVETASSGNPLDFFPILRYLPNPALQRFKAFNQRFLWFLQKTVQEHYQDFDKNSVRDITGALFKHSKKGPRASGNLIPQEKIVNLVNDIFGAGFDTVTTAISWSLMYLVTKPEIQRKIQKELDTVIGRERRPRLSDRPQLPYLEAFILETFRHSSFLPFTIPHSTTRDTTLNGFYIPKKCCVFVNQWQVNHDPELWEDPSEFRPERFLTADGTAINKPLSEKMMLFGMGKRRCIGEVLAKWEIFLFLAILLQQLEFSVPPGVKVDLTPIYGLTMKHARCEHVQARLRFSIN
UniProt P20814, whole entry, looked up: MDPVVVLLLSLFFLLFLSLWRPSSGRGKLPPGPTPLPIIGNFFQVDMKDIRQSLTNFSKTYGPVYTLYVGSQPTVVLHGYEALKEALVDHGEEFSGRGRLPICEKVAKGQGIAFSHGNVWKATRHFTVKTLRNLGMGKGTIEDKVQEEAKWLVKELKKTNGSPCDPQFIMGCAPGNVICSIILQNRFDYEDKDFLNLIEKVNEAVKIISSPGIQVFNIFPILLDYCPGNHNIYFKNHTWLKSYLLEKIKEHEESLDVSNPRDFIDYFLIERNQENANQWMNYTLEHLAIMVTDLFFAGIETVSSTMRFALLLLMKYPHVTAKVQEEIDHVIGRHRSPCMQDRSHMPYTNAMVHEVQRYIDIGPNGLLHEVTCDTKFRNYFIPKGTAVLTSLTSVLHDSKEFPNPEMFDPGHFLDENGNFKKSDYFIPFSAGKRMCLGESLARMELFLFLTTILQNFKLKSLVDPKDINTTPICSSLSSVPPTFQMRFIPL
UniProt P56817: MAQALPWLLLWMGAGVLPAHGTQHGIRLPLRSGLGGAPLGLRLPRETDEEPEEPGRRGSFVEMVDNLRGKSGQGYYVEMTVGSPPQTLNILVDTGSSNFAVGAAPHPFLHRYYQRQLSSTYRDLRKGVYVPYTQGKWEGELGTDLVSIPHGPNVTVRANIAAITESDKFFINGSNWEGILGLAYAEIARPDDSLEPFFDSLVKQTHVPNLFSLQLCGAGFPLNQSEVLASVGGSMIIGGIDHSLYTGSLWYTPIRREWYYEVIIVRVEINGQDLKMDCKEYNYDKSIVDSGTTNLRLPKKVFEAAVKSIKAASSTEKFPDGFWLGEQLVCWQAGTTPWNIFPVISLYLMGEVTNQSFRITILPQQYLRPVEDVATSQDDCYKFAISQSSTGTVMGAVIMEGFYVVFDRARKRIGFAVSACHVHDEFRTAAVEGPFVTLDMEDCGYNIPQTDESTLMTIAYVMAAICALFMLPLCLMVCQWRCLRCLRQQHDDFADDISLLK
UniProt P34969, whole entry, looked up: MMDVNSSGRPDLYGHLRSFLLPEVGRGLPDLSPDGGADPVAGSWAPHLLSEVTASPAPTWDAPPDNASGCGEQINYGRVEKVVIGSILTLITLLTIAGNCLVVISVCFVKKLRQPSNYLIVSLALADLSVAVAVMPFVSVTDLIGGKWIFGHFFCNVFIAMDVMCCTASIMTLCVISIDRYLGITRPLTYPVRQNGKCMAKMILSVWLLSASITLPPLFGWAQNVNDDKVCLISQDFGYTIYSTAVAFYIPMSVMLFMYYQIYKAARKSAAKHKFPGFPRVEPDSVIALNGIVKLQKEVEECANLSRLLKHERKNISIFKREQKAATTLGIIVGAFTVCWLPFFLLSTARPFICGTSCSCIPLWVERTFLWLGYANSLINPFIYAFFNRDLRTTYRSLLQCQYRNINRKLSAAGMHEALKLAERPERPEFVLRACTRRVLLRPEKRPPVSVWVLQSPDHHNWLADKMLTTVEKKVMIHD
UniProt Q96RI1: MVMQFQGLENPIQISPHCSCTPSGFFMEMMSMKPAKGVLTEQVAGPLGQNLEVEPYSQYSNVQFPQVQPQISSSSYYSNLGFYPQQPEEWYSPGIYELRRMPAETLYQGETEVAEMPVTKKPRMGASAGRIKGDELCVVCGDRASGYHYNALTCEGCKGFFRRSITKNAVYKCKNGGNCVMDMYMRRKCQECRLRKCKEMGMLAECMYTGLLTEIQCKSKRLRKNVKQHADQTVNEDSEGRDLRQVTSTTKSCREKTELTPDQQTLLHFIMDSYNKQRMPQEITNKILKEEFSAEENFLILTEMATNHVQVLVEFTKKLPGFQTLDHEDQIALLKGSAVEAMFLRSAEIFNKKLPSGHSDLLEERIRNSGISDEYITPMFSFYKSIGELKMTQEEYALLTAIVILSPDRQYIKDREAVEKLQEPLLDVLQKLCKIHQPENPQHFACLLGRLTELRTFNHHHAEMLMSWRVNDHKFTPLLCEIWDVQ
UniProt P19793: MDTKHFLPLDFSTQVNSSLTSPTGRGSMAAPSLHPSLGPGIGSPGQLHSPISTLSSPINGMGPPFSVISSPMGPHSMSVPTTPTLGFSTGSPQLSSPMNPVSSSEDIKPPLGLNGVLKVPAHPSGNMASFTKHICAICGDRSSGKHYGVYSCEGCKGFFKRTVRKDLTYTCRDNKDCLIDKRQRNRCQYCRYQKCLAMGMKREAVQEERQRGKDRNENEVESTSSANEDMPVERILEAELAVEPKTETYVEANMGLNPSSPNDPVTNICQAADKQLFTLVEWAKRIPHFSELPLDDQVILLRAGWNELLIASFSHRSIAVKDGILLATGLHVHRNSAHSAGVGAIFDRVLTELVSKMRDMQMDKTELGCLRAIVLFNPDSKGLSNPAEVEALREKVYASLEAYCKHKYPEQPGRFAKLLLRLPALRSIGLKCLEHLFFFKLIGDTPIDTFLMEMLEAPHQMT

Assays:
[1] = BSK_SAg_Proliferation: Cell Proliferation Assessment in the BioMAP Diversity Plus: SAg Assay (AID 2283095; active = hit-call score of the fitted dose curve at least 0.9, where 1 is the maximum; inactive = score below 0.9;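 note: relative cell number as total protein by SRB absorbance in sub-confluent culture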); conditions: primary human HUVEC with PBMC
In short: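 Relative cell number in the endothelial cell/PBMC co-culture was quantified at 96 h by SRB staining (0.1% SRB, 10% TCA fixation, read at 560 nm). Curves were fitted in both directions relative to DMSO baseline.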

[2] = BSK_SAg_SRB: Viability Assessment in the BioMAP Diversity Plus: SAg Assay (AID 2283096; active = hit-call score of the fitted dose curve at least 0.9, where 1 is the maximum; inactive = score below 0.9;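 note: cells read one day after compound addition; hits may be either gain or loss of signal compared with DMSO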); conditions: primary human HUVEC with PBMC
In short: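 SRB absorbance at 560 nm served as the viability read-out. Cells (HUVEC plus peripheral blood mononuclear cells) were TCA-fixed and stained 24 h post-dosing; activity fitted in both directions against DMSO controls.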

[3] = biological target: human CYP1A2, CYP1A2 (gene 1544) (UniProt P05177); experiment: NVS_ADME_hCYP1A2: NovaScreen (NVS) CYP450-related Enzyme Activity (ADME) Assay for human CYP1A2 (AID 2283102)
In short: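 Enzyme activity of insect-cell-expressed human CYP1A2 measured by fluorescence 0.5 h after compound addition, relative to acetonitrile. Compounds first tested in duplicate at 10 uM, actives followed up in concentration series.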

[4] = biological target: rat CYP2C13, Cyp2c13 (gene 171521) (UniProt P20814); experiment: NVS_ADME_rCYP2C13: NovaScreen (NVS) CYP450-related Enzyme Activity (ADME) Assay for rat CYP2C13 (AID 2283121)
Experimental: NVS_ADME_rCYP2C13 is a biochemical, single-readout assay that uses extracted gene-proteins in a cell-free assay. Measurements were taken 0.75 hour after chemical dosing in a 96-well plate.NVS_ADME_rCYP2C13 is one of one assay component(s) measured or calculated from the NVS_ADME_rCYP2C13 assay. It is designed to make measurements of enzyme activity, a form of enzyme reporter, as detected with fluorescence intensity signals by Fluorescence technology.Data from the assay component NVS_ADME_rCYP2C13 was analyzed into 1 assay endpoint. This assay endpoint, NVS_ADME_rCYP2C13, was analyzed in the positive analysis fitting direction relative to Acetonitrile as the negative control and baseline of activity. Using a type of enzyme reporter, loss-of-signal activity can be used to understand changes in the enzymatic activity as they relate to the gene Cyp2c13. Furthermore, this assay endpoint can be referred to as a primary readout, because this assay has produced multiple assay endpoints where this one serves a enzymatic activity function. To generalize the intended target to other relatable targets, this assay endpoint is annotated to the cyp intended target family, where the subfamily is xenobiotic metabolism. […]

[5] = biological target: human Beta-secretase (BACE), BACE1 (gene 23621) (UniProt P56817); experiment: NVS_ENZ_hBACE: NovaScreen (NVS) Enzymatic Assay for human Beta-secretase (BACE) (AID 2283140);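 note: hits are inhibitors that reduce fluorescent substrate signal versus DMSO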
[6] = biological target: human Serotonin, 5-Hydroxytryptamine Receptor 7 (5HT7), HTR7 (gene 3363) (UniProt P34969); experiment: NVS_GPCR_h5HT7: NovaScreen (NVS) G Protein-Coupled Receptor Assay for human Serotonin, 5-Hydroxytryptamine Receptor 7 (5HT7) (AID 2283255);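 note: hits reduce specific radioligand binding relative to DMSO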
In short: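 Filter-bound radioactivity counted after 1 h, with loss of specific radioligand binding fitted against DMSO. Membrane protein came from CHO cells expressing human 5HT7. Chemicals were tested first at 25 uM in duplicate, then in concentration series if active.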

NCBI gene 100848466 = experiment: NVS_NR_bPR: NovaScreen (NVS) Nuclear Receptor Binding Assay for bovine Progextron Receptor (PR) (AID 2283343);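 note: actives lower bound radioligand signal below DMSO meaning displacement of the label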
[7] = biological target: Bile acid receptor (Homo sapiens) (UniProt Q96RI1); experiment: NVS_NR_hFXR_Antagonist: NovaScreen (NVS) Nuclear Receptor Binding Assay for human Farnesoid X Receptor Antagonism (FXR) (AID 2283350)
In short: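 Antagonist-format time-resolved FRET binding assay with extracted human receptor protein, read 1 hour after compound addition. Compounds first screened at 25 uM in duplicate, then actives tested in concentration series, with loss of signal relative to DMSO.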

[8] = biological target: Retinoic acid receptor RXR-alpha (Homo sapiens) (UniProt P19793); experiment: OT_NURR1_NURR1RXRa_1440: Odyssey Thera (OT) 24-hour HEK293T Protein Complementation Assay for Nurr1/retinoid X receptor (RXR) (AID 2283386)
In short: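 Gain in fluorescence, fitted relative to DMSO, reflects Nurr1–RXRα association in HEK293T cells after 24 h dosing. Bait and prey are each linked to a reporter-protein fragment that reassembles on interaction.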

[9] = CEETOX_H295R_CORTISOL: CeeTox H295R High-throughput Steroidogenesis Assay for Cortisol (AID 2283438; active = hit-call score of the fitted dose curve at least 0.9, where 1 is the maximum; inactive = score below 0.9;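 note: cortisol secreted into medium quantified by LC-MS/MS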); conditions: actives raise or lower the signal
In short: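 Cortisol measured by HPLC-MS/MS after MTBE extraction of medium from H295R cells exposed 48 h to chemical (0.1% DMSO), following 48 h prestimulation with 10 uM forskolin. Viability assessed by MTT in the same wells.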

[10] = ArunA_NOG_NeuriteLength: ArunA Biomedical's Neurite Outgrowth (NOG) Assay for Neurite Length (AID 2283757)
In short: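 Total neurite length per neuron, from traced βIII-tubulin-labelled processes longer than 10 um on viable Hoechst-gated cells, was scored as decrease from DMSO. Cells were hESC (H9)-derived neurons given 48 h chemical exposure immediately after seeding.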

[11] = test system: zebrafish Estrogen Receptor (ESR2B), gene 317733; experiment: ATG_zfER2b_XSP1: Attagene TRANS-FACTORIAL Multi-Species (XSP1) HepG2 Assay for zebrafish Estrogen Receptor (ESR2B) (AID 2283773)
In short: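 Medium contained 3 nM 6-alpha-fluorotestosterone. Reporter mRNA induction by exogenous zebrafish ER2b-Gal4 chimera was read 24 h post-dose in transiently transfected HepG2 cells, using RT-PCR, fluorescent labelling, HpaI digestion and capillary electrophoresis.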

[12] = test system: Sodium/Iodide Symporter (NIS), SLC5A5 (gene 6528); experiment: CPHEA_Stoker_NIS_Inhibition_RAIU: CPHEA's Radioactive Iodide Uptake (RAIU) Assay for Sodium/Iodide Symporter (NIS) Inhibition, Stoker and Laws Labs (AID 2283841)
In short: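 Iodide uptake read as CPM of intracellular 125I (final 329 pM) after 2 h room-temperature exposure in HEPES-buffered HBSS, pH 7.4. Human NIS-expressing HEK293T cells; six concentrations 0.001–100 uM, 0.5% DMSO, normalised to DMSO wells.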

[13] = CCTE_Simmons_MITO_max_resp_rate: CCTE's HepG2 Seahorse XF Respirometric Screening Assay at Maximal Respiratory State [uncoupled], Simmons Lab (AID 2284002; active = hit-call score of the fitted dose curve at least 0.9, where 1 is the maximum; inactive = score below 0.9); conditions: actives raise or lower the signal
In short: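 Maximal (FCCP-uncoupled) respiration rate in HepG2, from Seahorse kinetic OCR over 72 min at 6 min cycles. Compounds at 125 nM–100 uM final, 7 points, three biological replicates; both directions fit relative to DMSO.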

IYD (gene 389434) = experiment: CCTE_GLTED_hIYD: CCTE's human Iodotyrosine Deiodinase (xIYD) Inhibition Assay, Great Lakes Toxicology and Ecology Division (GLTED) Lab (AID 2284317);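 note: cell-free human IYD enzyme made in baculovirus insect cells; iodide freed from monoiodotyrosine measured by cerium arsenite color change at 420 nm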
In short: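 In the IYD assay, iodide released from MIT by insect-cell-expressed human enzyme was quantified after 3 h via Sandell-Kolthoff rate at 420 nm, with plate-wise normalization to MNT and solvent controls.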

Question: With `Oc1cc(Cl)ccc1Oc1ccc(Cl)cc1Cl` as the compound, how does the AC50 [1] read?
Answer: Its AC50 is active: 8.84 µM.

Question: What about the AC50 [2] of the same compound?
Answer: The AC50 was active: 15 µM.

Question: And the outcome [3]?
Answer: The outcome was “inactive”.

Question: And the AC50 [4]?
Answer: Its AC50 is active: 14.7 µM.

Question: What about the AC50 [5] of the same compound?
Answer: The AC50 was active: 20.7 µM.

Question: What about the outcome [6] of the same compound?
Answer: Its outcome is “inactive”.

Question: And the AC50 (NCBI gene 100848466)?
Answer: The AC50 was active: 20 µM.

Question: And the outcome [7]?
Answer: Its outcome is “inactive”.

Question: And the AC50 [8]?
Answer: The AC50 was active: 11.8 µM.

Question: And the outcome [9]?
Answer: Its outcome is “inactive”.

Question: And the outcome [10]?
Answer: Its outcome is “inactive”.

Question: And the AC50 [11]?
Answer: The AC50 was active: 13.8 µM.

Question: What about the AC50 [12] of the same compound?
Answer: The AC50 was active: 8.69 µM and active: 10.4 µM.

Question: What about the outcome [13] of the same compound?
Answer: The outcome was “inactive”.

Question: What about the AC50 (IYD (gene 389434)) of the same compound?
Answer: The AC50 was active: 42.9 µM.
